In publication PMC7897482:
These are yes or no findings as the source states them, for the method shown. Binding seen in cells or lysates may run through a third protein. Some results given as binding are weak or reduced against the parent protein; the word gives no strength. Sequences can lack the tags named with a protein. One block for each binder: values may come before it.

Sequences of proteins named here, by UniProt entry; tags and fusion partners are left off.
UniProt Q24297: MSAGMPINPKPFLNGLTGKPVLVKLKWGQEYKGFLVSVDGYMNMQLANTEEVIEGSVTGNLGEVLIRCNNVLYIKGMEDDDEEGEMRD

Legend:
[1] = molecular target: T1, SmD3::HA (transgenic UAS-SmD3::3xHA) (Drosophila melanogaster) (UniProt O44437); assay: co-IP; SmD3::HA precipitated with anti-HA antibody-coupled magnetic beads from wing imaginal disc lysates; endogenous Prp8 and Ecd detected by western blot; compared: ecd RNAi, prp8 RNAi, Prp8 overexpression, RNase A treatment of the lysate; control: discs expressing RFP only
T1 sequence: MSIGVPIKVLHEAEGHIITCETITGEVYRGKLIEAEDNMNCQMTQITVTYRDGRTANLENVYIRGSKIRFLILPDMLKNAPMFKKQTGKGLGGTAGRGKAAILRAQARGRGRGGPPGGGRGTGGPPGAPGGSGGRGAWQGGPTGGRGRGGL

[2] = molecular target: T2, Flag::SmD3 (Drosophila melanogaster) (UniProt O44437); assay: co-IP; lysates of transfected Drosophila S2 cells; proteins pulled down by anti-Flag magnetic beads (Flag::SmD3 as bait), overnight at 4°C, five washes in lysis buffer with 150-250 mM NaCl; western blot
T2 sequence: T1 sequence

[3] = molecular target: tagged SmF (Drosophila melanogaster) (UniProt Q24297); assay: as above

binding [1]: binds
B1: endogenous Ecd (wing imaginal discs) (protein, UniProt Q9W032 1-684)
chain: MSKIPGSNLEFVREEDFVEYYIFPKIPDNVQDEGALRKLMLQIRNEISAIVREKSLERSYLWHKDEFQLQVRLGGAEERLLNEETNPEEEAELGDLPPHFHGVTHYGDNISDEWFVVYLLTEITRARGDCIARVSDSDGEFLLIEAADALPDWASPETCEQRVYLVGGHLQLLQNSAASSQDKPLTMAMAVQRIRMNPTLYRCSQEIQSCIDARLKEYQIAQPHFSIHRQVLELPHSAAQLLKQKPRLLSSAVRAFCERDSLDIKALRTMRYFPPEATRVRTNVRFTRCLYAMLSHQQYLPEKRLGWHLTDPVSEPERYKEQLLGLKLASGLEILATQAKRVEGQQLEDLPAWRSYLRSLLSKGYFRDNIEGSAEYQELLNKAKVYFRGNQERFRTASRAGAEILDLLLHPAEAASEELRDEENNLQPSDSDEWLNISAEDLDSMLQDRYGPKKLYKPNGQMNAEEFTKQLAEFLDRQSNYEGIEHRGLEEPELDSDDDEPPPQANGSTGLTAKVKKNPSMRKACQRNSVIQPEEPDSTHVRNFLDFVIPEDNWDSTSEMSDYADEDDMESNLNALSGGGSVFPLDRQIQSYMEQMDRELAQTSVGKSFHGKKKTAPQADEDDFDDIEDFEPININVNTLRNMMDSYQSQVGGAGPVSNLFSAMGVGMSAVEDKEQKDISESAV

binding [2]: binds | binding [3]: no binding
B2: Myc::Ecd^wt (Ecdysoneless, wild type) (protein, UniProt Q9W032 1-684)
chain: B1 chain
